# Data: PubChem BioAssay AID504444 (National Center for Advancing Translational Sciences (NCATS), 2011)
# About 7,500 (2.1%) of roughly 360,000 compounds were called active. The shares of active, inactive and inconclusive entries below differ from those in the screen. Calls follow the shape of the dose curve; as a rule, active = well fitted inhibition curve with a large enough effect; inconclusive = small, poorly fitted or top-dose-only effect, or effect the other way; inactive = flat fitted curve, though single readings scatter. Potencies of inconclusive entries are doubtful fits and often do not repeat.
# Test: Nrf2 qHTS screen for inhibitors; also: nearly all actives have a fitted effect of over 60% in size
# Settings: A549 ARE-Fluc reporter, luciferase luminescence, 18-24 h; series mostly up to 46 µM
# Outline: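 Cells were seeded and rested 2 h, then exposed to compounds for 18-24 h. CellTiter-Fluor was read first as a viability measure. BugLite was added 15 min before the final luminescent read of ARE-luciferase activity in A549 cells.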
# Potency is read from the fitted curve at half-maximal effect.
row,Compound,Potency
1,CC1CN(C(=O)COC(=O)c2ccc(S(=O)(=O)N(C)C)cc2)CC(C)O1 (stereo unspecified),"inconclusive: 20.6 µM [falling, single point]"
2,O=C(/C=C/NCc1cccnc1)c1ccc(Br)cc1,"inconclusive: 2.91 µM [activator, partial curve]"
3,CCCCCCc1nc(C(N)=O)c2[nH]c(=O)n(-c3ccc(OCC)cc3)c2n1,"inconclusive: 13 µM [falling, partial curve, poor fit]"
4,S=C1NC(c2ccccc2)N2C(=S)NC(c3ccccc3)N12 (stereo unspecified),"inconclusive: 0.82 µM [activator, partial curve]"
5,COc1ccc2nc(SCC(=O)Nc3c(C)cccc3C)[nH]c2c1,inactive
6,COc1cccc(CSc2nc(-c3ccccc3F)nc3c2Cc2c(CO)cnc(C)c2O3)c1,"inconclusive: 7.31 µM [activator, partial curve, poor fit]"
7,Cn1c(=O)c2c(nc(N/N=C/c3cccs3)n2Cc2ccc(Br)cc2)n(C)c1=O,"inconclusive: 5.17 µM [activator, single point]"
8,COc1ccc(C2C(C(C)=O)=C(O)C(=O)N2c2nccs2)cc1OC (stereo unspecified),inactive
9,CCOC(=O)c1cc(CC)sc1/N=C/C1C(=O)CCCC1=O,"inconclusive: 14.6 µM [activator, partial curve]"
10,C[n+]1ccccc1/C=C/c1ccc([N+](=O)[O-])cc1,active: 3.66 µM
11,COCCCNC(=O)C1Cc2cc(S(=O)(=O)N3CCCC3)ccc2N1C(C)=O (stereo unspecified),"inconclusive: 2.91 µM [falling, partial curve, poor fit]"
12,CCc1ccccc1NC(=S)NCCSc1ccc(Cl)cc1,active: 23.1 µM
13,O=C(CNC(=O)c1cccc(F)c1)N/N=C/c1cc(Br)ccc1OCc1ccccc1,inactive
14,O=[N+]([O-])c1ccc(O)c(C=Nc2cccc3ncccc23)c1,"inconclusive: 29.1 µM [activator, single point]"
15,O=S(=O)(c1ccccc1)c1nc(-c2cccc(Cl)c2)oc1N1CCOCC1,"inconclusive: 29.1 µM [falling, single point]"
16,CCOC(=O)c1cc(-c2ccccc2)n(CC2CC(c3ccc(OC)cc3)=NO2)n1 (stereo unspecified),"inconclusive: 13 µM [falling, partial curve]"
17,Cc1nc(SCc2cccc(F)c2)c2oc3ccccc3c2n1,inactive
18,COc1ccc(NC(=O)CSc2ncccn2)cc1S(=O)(=O)N1CCCCC1,"inconclusive: 25.9 µM [falling, single point]"
19,CCc1ccc(NC(=O)C(=O)NCc2ccccn2)cc1,"inconclusive: 20.6 µM [activator, single point]"
20,CCn1cc2nc(SCc3ccc(F)cc3)n(CCc3ccccc3)c(=O)c2n1,"inconclusive: 29.1 µM [falling, single point]"
21,O=C(c1ccc(COc2ccc(Cl)cc2)cc1)N1CCCCC1,"inconclusive: 18.4 µM [activator, single point]"
22,CC(=O)N1CCN(S(=O)(=O)c2cccc(C(=O)NCc3ccc(F)cc3)c2)CC1,"inconclusive: 16.4 µM [falling, partial curve, poor fit]"

row,Compound,Potency
1,COc1ccccc1NC(NC(=O)c1ccco1)C(=O)c1ccccc1 (stereo unspecified),"inconclusive: 29.1 µM [activator, single point]"
2,CCN(CC)S(=O)(=O)c1nnc(NC(=O)c2ccc(Br)cc2)s1,"inconclusive: 9.2 µM [activator, partial curve]"
3,CCn1c(=O)c(C(=O)NCCc2ccc(OC)c(OC)c2)c(O)c2ccccc21,"inconclusive: 29.1 µM [falling, single point]"
4,Cc1ccc(C(=O)NCc2cccnc2)cc1S(=O)(=O)N1CCCCCC1,active: 8.2 µM
5,Cc1cc(NC(=O)CN2C(=O)NC(CC(C)C)C2=O)ccc1Br (stereo unspecified),"inconclusive: 18.4 µM [falling, partial curve]"
6,O=C(CC(=O)N/N=C/c1c(F)cccc1Cl)NCCc1ccccc1,inactive
7,CCCCCCCCNC(=O)/C(C#N)=C/c1ccccc1[N+](=O)[O-],"inconclusive: 29.1 µM [falling, single point]"
8,Cc1occc1C(=O)N/N=C/c1c[nH]c2ccccc12,"inconclusive: 2.31 µM [activator, full curve]"
9,CN(CC(=O)Nc1cc(S(=O)(=O)N2CCCCCC2)ccc1Cl)Cc1ccc2c(c1)OCO2,"inconclusive: 8.2 µM [falling, partial curve, poor fit]"
10,CCc1ccccc1N(C)S(=O)(=O)c1ccc2c(c1)C(C)(C)C(=O)N2C,"inconclusive: 29.1 µM [activator, single point]"
11,O=S(=O)(Nc1ccc(N2CCCCC2)cc1)c1ccccc1F,"inconclusive: 29.1 µM [falling, partial curve, poor fit]"
12,Cc1ccc(Cn2c(C(CO)Nc3nc(-c4ccc(F)cc4)cs3)nc3ccccc32)cc1 (stereo unspecified),"inconclusive: 29.1 µM [falling, single point]"
13,CCCn1c(CC)nc([N+](=O)[O-])c1S(=O)(=O)c1ccccc1,active: 20.6 µM
14,Fc1ccc2c(c1)-c1c(cnc3cc(-c4ccc(Cl)cc4)nn13)CO2,"inconclusive: 8.2 µM [activator, partial curve]"
15,CCOC(=O)C1=C(c2ccccc2)NC(=S)NC1c1ccc(Cl)cc1 (stereo unspecified),"inconclusive: 18.4 µM [falling, single point]"
16,N#C/C(=C\c1ccco1)c1nc2ccccc2s1,"inconclusive: 11.6 µM [activator, partial curve]"
17,CC(C)c1nc(SCC(=O)c2ccc(F)cc2)c2ccccc2n1,"inconclusive: 20.6 µM [falling, single point]"
18,C=Cc1ccc(Cn2ccn(-c3ccc(F)c(F)c3)c(=O)c2=O)cc1,"inconclusive: 16.4 µM [activator, partial curve, poor fit]"
19,COCCNC(=S)N1CCC(C(=O)c2ccc(F)cc2)CC1,"inconclusive: 8.2 µM [falling, partial curve, poor fit]"
20,C[C@H](CO)N1C[C@H](C)[C@@H](CN(C)S(=O)(=O)c2ccccc2)Oc2ccc(NC(=O)Nc3ccccc3)cc2C1=O,"inconclusive: 16.4 µM [falling, single point]"
21,CCOc1cc(-c2nccc3cc(OC)c(OC)cc23)cc(OCC)c1OCC,"inconclusive: 11.6 µM [falling, partial curve]"
22,COc1ccc(C(=O)/C=C/C(=O)N(Cc2ccccc2OC)C(C(=O)NC2CCCCC2)c2ccncc2)c(O)c1 (stereo unspecified),inactive

row,Compound,Potency
1,N#CC1=C(N)Oc2cc3ccccc3cc2C1c1cccnc1 (stereo unspecified),"inconclusive: 29.1 µM [falling, single point]"
2,O=c1/c(=C/c2ccc(O)cc2)sc2n1CCCN=2,"inconclusive: 9.2 µM [activator, partial curve]"
3,COCCOc1cc(NC(=O)c2ccccc2)c(Cl)cc1Cl,inactive
4,O=C(c1ccc(S(=O)(=O)c2cccc(Cl)c2)c([N+](=O)[O-])c1)N1CCN(c2ccccn2)CC1,active: 16.4 µM
5,O=C(O)CN1CCCCC1,"inconclusive: 0.0052 µM [activator, full curve, poor fit]"
6,O=C(CCSCCC(=O)Nc1c(F)c(F)c(F)c(F)c1F)Nc1c(F)c(F)c(F)c(F)c1F,"inconclusive: 16.4 µM [falling, single point]"
7,O=C(Nc1cc2c(oc1=O)CCCC2=O)c1cccc(Cl)c1,inactive
8,Cc1cc(C)c(Cn2c(=O)n(CCCCC(=O)NCc3ccccc3Cl)c(=O)c3ccccc32)c(C)c1,inactive
9,Cn1c(NCc2ccco2)nc2c1c(=O)n(Cc1ccc(Cl)cc1Cl)c(=O)n2C,active: 18.4 µM
10,Cc1ccc(C(=O)NCCc2c[nH]c3ccccc23)s1,"inconclusive: 8.2 µM [activator, partial curve]"
11,CCC(=O)Nc1ccccc1-c1nc2ccccc2n(C(CC)C(=O)Nc2cccc(Cl)c2)c1=O (stereo unspecified),inactive
12,COc1ccc(-c2ccc3oc(-c4ccsc4)cc3c2)cc1,"inconclusive: 3.66 µM [activator, full curve]"
13,CC(=O)Nc1ccc(NC(=O)CSc2ccc(-c3ccco3)nn2)cc1,"inconclusive: 0.231 µM [falling, full curve, poor fit]"
14,COc1cc2nc(C3CCC3)nc(N3CCN(c4ccccn4)CC3)c2cc1OC,active: 25.9 µM
15,COc1cc(OC)c(C(=O)OC(C)C(=O)Nc2cc(C(F)(F)F)ccc2Cl)cc1OC (stereo unspecified),"inconclusive: 23.1 µM [falling, partial curve, poor fit]"
16,O=C(NCc1ccc(F)cc1)c1ccc2c(O)c(S(=O)(=O)c3ccccc3)c(=O)[nH]c2c1,"inconclusive: 29.1 µM [activator, single point]"
17,CCOC(=O)c1sc(NC(=O)c2ccc(S(=O)(=O)N3CCOCC3)cc2)nc1-c1ccccc1,active: 20.6 µM
18,CCOC(=O)Cn1c2ccc(OC)cc2c2nc3ccccc3nc21,"inconclusive: 5.8 µM [falling, partial curve, poor fit]"
19,CCCN(CCC)c1ncnc2nc[nH]c12,"inconclusive: 7.31 µM [falling, partial curve, poor fit]"
20,COc1ccc(CNC(=O)CSc2nnc(NC(=O)c3ccccc3F)s2)cc1,"inconclusive: 8.2 µM [activator, partial curve]"
21,COc1ccc(C)cc1-n1nnc(-c2nc(-c3ccccc3Cl)no2)c1N,inactive
22,COc1ccc(CN(C)C(C)C(=O)Nc2ccc([N+](=O)[O-])cc2Cl)cc1OC (stereo unspecified),"inconclusive: 18.4 µM [falling, single point]"

# Filtered by structure, the entries above containing bromine.
row,Compound,Potency
2,O=C(/C=C/NCc1cccnc1)c1ccc(Br)cc1,"inconclusive: 2.91 µM [activator, partial curve]"
7,Cn1c(=O)c2c(nc(N/N=C/c3cccs3)n2Cc2ccc(Br)cc2)n(C)c1=O,"inconclusive: 5.17 µM [activator, single point]"
13,O=C(CNC(=O)c1cccc(F)c1)N/N=C/c1cc(Br)ccc1OCc1ccccc1,inactive
2,CCN(CC)S(=O)(=O)c1nnc(NC(=O)c2ccc(Br)cc2)s1,"inconclusive: 9.2 µM [activator, partial curve]"
5,Cc1cc(NC(=O)CN2C(=O)NC(CC(C)C)C2=O)ccc1Br (stereo unspecified),"inconclusive: 18.4 µM [falling, partial curve]"
